# Assay results taken from the supplement of paper PMC8728848.
# Some of the results follow.
# B1: SspB (Streptococcus gordonii), P16952 (protein)
# chain: MKNKKEVYGFRKSKVAKTLCGAVLGTALIAFADKAVFADEVTETTSTSTVEVATTGNPATNLPEAQGEMSQVAKESQAKAGSKESALPVEVSSADLDKAVADAKSAGVKVVQDETKDKGTATTATDNAQKQDEIKSDYAKQAEEIKTTTEAYKKEVAAHQAETDKINAENKAADDKYQKDLKSHQEEVEKINTANATAKAEYEAKLAQYQKDLATVKKANEDSQQDYQNKLSAYQTELARVQKANAEAKEAYEKAVKENTAKNEALKVENEAIKQRNETAKATYEAAMKQYEADLAAIKKANEDNDADYQAKLAAYQTELARVQKANAEAKEAYDKAVKENTAKNTAIQAENEAIKQRNETAKATYDAAVKKYEADLAAVKQANATNEADYQAKLAAYQTELARVQKANADAKATYEKAVEDNKAKNAAIKAENEEIKQRNAVAKTDYEAKLAKYEADLAKYKKEFAAYTAALAEAESKKKQDGYLSEPRSQSLNFKSEPNAIRTIDSSVHQYGQQELDALVKSWGISPTNPDRKKSRAYSYFNAINSNNTYAKLVLEKDKPVDVTYTGLKNSSFNGKKISKVVYTYTLKETGFNDGTKMTMFASSDPTVTAWYNDYFTSTNINVKVKFYDEEGQLMNLTGGLVNFSSLNRGNGSGAIDKDAIESVRNFNGRYIPISGSSIKIHENNSAYADSSNAEKSLGARWNTSEWDTTSSPNNWYGAIVGEITQSEISFNMASSKSGNIWFAFNSNINAIGVPTKPVAPTAPTQPMYETEKPLEPAPVAPSYENEPTPPVKTPDQPEPSKPEEPTYETEKPLEPAPVAPSYENEPTPPVKTPDQPEPSKPEEPNYETEKPLEPAPVAPSYENEPTPPVKIPDQPEPSKPEEPTYDPLPTPPLAPTPKQLPTPPVVPTVHFHYSSLLAQPQINKEIKNEDGVDIDRTLVAKQSIVKFELKTEALTAGRPKTTSFVLVDPLPTGYKFDLDATKAASTGFDTTYDEASHTVTFKATDETLATYNADLTKPVETLHPTVVGRVLNDGATYTNNFTLTVNDAYGIKSNVVRVTTPGKPNDPDNPNNNYIKPTKVNKNKEGLNIDGKEVLAGSTNYYELTWDLDQYKGDKSSKEAIQNGFYYVDDYPEEALDVRPDLVKVADEKGNQVSGVSVQQYDSLEAAPKKVQDLLKKANITVKGAFQLFSADNPEEFYKQYVATGTSLVITDPMTVKSEFGKTGGKYENKAYQIDFGNGYATEVVVNNVPKITPKKDVTVSLDPTSENLDGQTVQLYQTFNYRLIGGLIPQNHSEELEDYSFVDDYDQAGDQYTGNYKTFSSLNLTMKDGSVIKAGTDLTSQTTAETDATNGIVTVRFKEDFLQKISLDSPFQAETYLQMRRIAIGTFENTYVNTVNKVAYASNTVRTTTPIPRTPDKPTPIPTPKPKDPDKPETPKEPKVPSPKVEDPSAPIPVSVGKELTTLPKTGTNDATYMPYLGLAALVGFLGLGLAKRKED
# Columns and labels:
# Assay in all cases: glycan array binding signal (z-score within array); higher = stronger binding
# Conditions in all cases: glycan notation: IUPAC condensed, linker removed
# [1] = biological target: Neu5Ac(a2-3)Gal(b1-4)GlcNAc(b1-3)Gal(b1-4)GlcNAc(b1-3)Gal(b1-4)GlcNAc
# Method in brief: (§1)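 Negative Z-scores can be read as non-binding. The Z-score is calculated within each array and then averaged across arrays of one protein sequence at different concentrations or buffers and across linkers. Arrays, 3228 in all, were curated from the Consortium for Functional Glycomics database and kept only where the protein sequence was available.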
# [2] = biological target: Neu5Ac(a2-3)Gal(b1-4)GlcNAc(b1-3)Gal(b1-4)[Fuc(a1-3)]GlcNAc
# Method in brief: as §1
# [3] = biological target: Neu5Ac(a2-3)Gal(b1-4)GlcNAc(b1-3)GalNAc
# Method in brief: as §1
# [4] = biological target: Neu5Ac(a2-3)Gal(b1-4)GlcNAc(b1-6)[Gal(b1-3)]GalNAc
# Method in brief: as §1
# [5] = biological target: Neu5Ac(a2-3)Gal(b1-4)GlcNAc(b1-6)[Neu5Ac(a2-3)Gal(b1-3)]GalNAc
# Method in brief: as §1
# [6] = biological target: Neu5Ac(a2-3)Gal(b1-4)GlcNAc6S
# Method in brief: as §1
# [7] = biological target: Neu5Ac(a2-3)Gal(b1-4)[Fuc(a1-3)]GlcNAc
# Method in brief: as §1
# [8] = biological target: Neu5Ac(a2-3)Gal(b1-4)[Fuc(a1-3)]GlcNAc(b1-3)Gal
# Method in brief: as §1
# [9] = biological target: Neu5Ac(a2-3)Gal(b1-4)[Fuc(a1-3)]GlcNAc(b1-3)Gal(b1-4)GlcNAc
# Method in brief: as §1
# [10] = biological target: Neu5Ac(a2-3)Gal(b1-4)[Fuc(a1-3)]GlcNAc(b1-3)Gal(b1-4)[Fuc(a1-3)]GlcNAc(b1-3)Gal(b1-4)[Fuc(a1-3)]GlcNAc
# Method in brief: as §1
# [11] = biological target: Neu5Ac(a2-3)Gal(b1-4)[Fuc(a1-3)]GlcNAc(b1-3)GalNAc
# Method in brief: as §1
# [12] = biological target: Neu5Ac(a2-3)Gal(b1-4)[Fuc(a1-3)]GlcNAc(b1-6)[Gal(b1-3)]GalNAc
# Method in brief: as §1
# [13] = biological target: Neu5Ac(a2-3)Gal(b1-4)[Fuc(a1-3)]GlcNAc(b1-6)[Neu5Ac(a2-3)Gal(b1-3)]GalNAc
# Method in brief: as §1
# [14] = biological target: Neu5Ac(a2-3)Gal(b1-4)[Fuc(a1-3)]GlcNAc6S
# Method in brief: as §1
# [15] = biological target: Neu5Ac(a2-3)Gal6S(b1-4)GlcNAc
# Method in brief: as §1
# [16] = biological target: Neu5Ac(a2-3)Gal6S(b1-4)[Fuc(a1-3)]GlcNAc
# Method in brief: as §1
# Neu5Ac(a2-3)GalNAc = biological target: Neu5Ac(a2-3)GalNAc
# Method in brief: as §1
# [17] = biological target: Neu5Ac(a2-3)GalNAc(b1-4)GlcNAc
# Method in brief: as §1
# [18] = biological target: Neu5Ac(a2-3)[GalNAc(b1-4)]Gal(b1-4)Glc
# Method in brief: as §1
# [19] = biological target: Neu5Ac(a2-3)[GalNAc(b1-4)]Gal(b1-4)GlcNAc
# Method in brief: as §1
# [20] = biological target: Neu5Ac(a2-3)[GalNAc(b1-4)]Gal(b1-4)GlcNAc(b1-3)GalNAc
# Method in brief: as §1
# [21] = biological target: Neu5Ac(a2-3)[Neu5Ac(a2-6)]GalNAc
# Method in brief: as §1
# Neu5Ac(a2-6)Gal = biological target: Neu5Ac(a2-6)Gal
# Method in brief: as §1
# Neu5Ac(a2-6)Gal(b1-4)Glc = biological target: Neu5Ac(a2-6)Gal(b1-4)Glc
# Method in brief: as §1
# [22] = biological target: Neu5Ac(a2-6)Gal(b1-4)GlcNAc
# Method in brief: as §1
# [23] = biological target: Neu5Ac(a2-6)Gal(b1-4)GlcNAc(b1-2)Man(a1-3)Man(b1-4)GlcNAc(b1-4)GlcNAc
# Method in brief: as §1
# [24] = biological target: Neu5Ac(a2-6)Gal(b1-4)GlcNAc(b1-2)Man(a1-3)[Gal(b1-4)GlcNAc(b1-2)Man(a1-6)]Man(b1-4)GlcNAc(b1-4)GlcNAc
# Method in brief: as §1
# [25] = biological target: Neu5Ac(a2-6)Gal(b1-4)GlcNAc(b1-2)Man(a1-3)[GlcNAc(b1-2)Man(a1-6)]Man(b1-4)GlcNAc(b1-4)GlcNAc
# Method in brief: as §1
# [26] = biological target: Neu5Ac(a2-6)Gal(b1-4)GlcNAc(b1-2)Man(a1-3)[GlcNAc(b1-2)Man(b1-4)GlcNAc(b1-2)Man(a1-6)]Man(b1-4)GlcNAc(b1-4)GlcNAc
# Method in brief: as §1
# [27] = biological target: Neu5Ac(a2-6)Gal(b1-4)GlcNAc(b1-2)Man(a1-3)[Man(a1-6)]Man(b1-4)GlcNAc(b1-4)GlcNAc
# Method in brief: as §1
# [28] = biological target: Neu5Ac(a2-6)Gal(b1-4)GlcNAc(b1-2)Man(a1-3)[Neu5Ac(a2-6)Gal(b1-4)GlcNAc(b1-2)Man(a1-6)]Man(b1-4)GlcNAc(b1-4)GlcNAc
# Method in brief: as §1
# [29] = biological target: Neu5Ac(a2-6)Gal(b1-4)GlcNAc(b1-2)Man(a1-6)Man(b1-4)GlcNAc(b1-4)GlcNAc
# Method in brief: as §1
# [30] = biological target: Neu5Ac(a2-6)Gal(b1-4)GlcNAc(b1-2)Man(a1-6)[Gal(b1-4)GlcNAc(b1-2)Man(a1-3)]Man(b1-4)GlcNAc(b1-4)GlcNAc
# Method in brief: as §1
# [31] = biological target: Neu5Ac(a2-6)Gal(b1-4)GlcNAc(b1-2)Man(a1-6)[GlcNAc(b1-2)Man(a1-3)]Man(b1-4)GlcNAc(b1-4)GlcNAc
# Method in brief: as §1
# [32] = biological target: Neu5Ac(a2-6)Gal(b1-4)GlcNAc(b1-2)Man(a1-6)[Man(a1-3)]Man(b1-4)GlcNAc(b1-4)GlcNAc
# Method in brief: as §1
# [33] = biological target: Neu5Ac(a2-6)Gal(b1-4)GlcNAc(b1-3)Gal(b1-3)GlcNAc
# Method in brief: as §1
# [34] = biological target: Neu5Ac(a2-6)Gal(b1-4)GlcNAc(b1-3)Gal(b1-4)GlcNAc
# Method in brief: as §1
# [35] = biological target: Neu5Ac(a2-6)Gal(b1-4)GlcNAc(b1-3)Gal(b1-4)GlcNAc(b1-3)Gal(b1-4)GlcNAc
# Method in brief: as §1
# [36] = biological target: Neu5Ac(a2-6)Gal(b1-4)GlcNAc(b1-3)Gal(b1-4)[Fuc(a1-3)]GlcNAc(b1-3)Gal(b1-4)[Fuc(a1-3)]GlcNAc
# Method in brief: as §1
# [37] = biological target: Neu5Ac(a2-6)Gal(b1-4)GlcNAc(b1-3)GalNAc
# Method in brief: as §1
# [38] = biological target: Neu5Ac(a2-6)Gal(b1-4)GlcNAc6S
# Method in brief: as §1
# Neu5Ac(a2-6)GalNAc = biological target: Neu5Ac(a2-6)GalNAc
# Method in brief: as §1
# [39] = biological target: Neu5Ac(a2-6)GalNAc(b1-4)GlcNAc
# Method in brief: as §1
# [40] = biological target: Neu5Ac(a2-6)GlcNAc(b1-4)GlcNAc
# Method in brief: as §1
# [41] = biological target: Neu5Ac(a2-6)GlcNAc(b1-4)GlcNAc(b1-4)GlcNAc
# Method in brief: as §1
binder,measurement,setting,value
B1,glycan array binding signal (z-score),[1],-0.705
same,glycan array binding signal (z-score),[2],-1.85
same,glycan array binding signal (z-score),[3],-0.392
same,glycan array binding signal (z-score),[4],-0.427
same,glycan array binding signal (z-score),[5],-0.999
same,glycan array binding signal (z-score),[6],-0.199
same,glycan array binding signal (z-score),[7],0.119
same,glycan array binding signal (z-score),[8],-1.3
same,glycan array binding signal (z-score),[9],-0.997
same,glycan array binding signal (z-score),[10],0.022
same,glycan array binding signal (z-score),[11],1.45
same,glycan array binding signal (z-score),[12],0.83
same,glycan array binding signal (z-score),[13],-0.102
same,glycan array binding signal (z-score),[14],0.987
same,glycan array binding signal (z-score),[15],-1.41
same,glycan array binding signal (z-score),[16],-0.618
same,glycan array binding signal (z-score),Neu5Ac(a2-3)GalNAc,-0.801
same,glycan array binding signal (z-score),[17],-0.22
same,glycan array binding signal (z-score),[18],0.757
same,glycan array binding signal (z-score),[19],0.157
same,glycan array binding signal (z-score),[20],0.463
same,glycan array binding signal (z-score),[21],0.147
same,glycan array binding signal (z-score),Neu5Ac(a2-6)Gal,0.974
same,glycan array binding signal (z-score),Neu5Ac(a2-6)Gal(b1-4)Glc,-1.2
same,glycan array binding signal (z-score),[22],0.259
same,glycan array binding signal (z-score),[23],0.633
same,glycan array binding signal (z-score),[24],3.2
same,glycan array binding signal (z-score),[25],0.149
same,glycan array binding signal (z-score),[26],0.542
same,glycan array binding signal (z-score),[27],1.36
same,glycan array binding signal (z-score),[28],0.104
same,glycan array binding signal (z-score),[29],1.36
same,glycan array binding signal (z-score),[30],-0.88
same,glycan array binding signal (z-score),[31],0.081
same,glycan array binding signal (z-score),[32],-0.773
same,glycan array binding signal (z-score),[33],-0.01
same,glycan array binding signal (z-score),[34],0.136
same,glycan array binding signal (z-score),[35],-0.931
same,glycan array binding signal (z-score),[36],-1.2
same,glycan array binding signal (z-score),[37],1.63
same,glycan array binding signal (z-score),[38],0.701
same,glycan array binding signal (z-score),Neu5Ac(a2-6)GalNAc,-0.019
same,glycan array binding signal (z-score),[39],-0.856
same,glycan array binding signal (z-score),[40],-1.62
same,glycan array binding signal (z-score),[41],0.146

# Two records picked at random from those above, as already listed:
binder,measurement,setting,value
B1,glycan array binding signal (z-score),[2],-1.85
same,glycan array binding signal (z-score),[14],0.987
